# Test results as given in PubChem BioAssay AID1671190 (National Center for Advancing Translational Sciences (NCATS), 2021).
# Protein sequences, listed by entry. Tags and fused reporters are not part of them. Lines headed by an entry give the natural chain unless they say otherwise; changes in a name come on top.
# UniProt P18054: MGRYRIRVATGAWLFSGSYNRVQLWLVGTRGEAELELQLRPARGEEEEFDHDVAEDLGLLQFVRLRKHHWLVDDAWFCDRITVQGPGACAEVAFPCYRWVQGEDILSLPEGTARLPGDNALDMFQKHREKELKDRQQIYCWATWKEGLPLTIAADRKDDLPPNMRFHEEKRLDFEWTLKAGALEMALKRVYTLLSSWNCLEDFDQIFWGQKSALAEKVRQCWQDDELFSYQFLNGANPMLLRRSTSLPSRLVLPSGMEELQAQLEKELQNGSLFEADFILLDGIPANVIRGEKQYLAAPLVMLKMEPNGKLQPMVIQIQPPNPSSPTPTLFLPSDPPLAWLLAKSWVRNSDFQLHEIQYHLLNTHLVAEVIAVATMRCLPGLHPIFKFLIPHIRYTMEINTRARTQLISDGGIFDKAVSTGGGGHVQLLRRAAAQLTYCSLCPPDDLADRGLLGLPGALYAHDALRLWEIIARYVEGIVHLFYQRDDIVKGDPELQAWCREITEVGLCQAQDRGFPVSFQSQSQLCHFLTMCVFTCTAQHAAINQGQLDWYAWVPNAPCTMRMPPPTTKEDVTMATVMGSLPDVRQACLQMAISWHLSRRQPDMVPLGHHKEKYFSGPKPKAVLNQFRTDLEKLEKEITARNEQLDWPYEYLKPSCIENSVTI
# Values joined by “and” are separate entries in the source; they are usually repeats but may differ in a detail not shown here. Equal values may be shown once. In all, about 580,000 compounds went through this assay and about 6,100 (1.1%) were called active. The shares of active, inactive and inconclusive entries below differ from those in the screen. The call rests on the fitted dose curve; in most records, active means well fitted inhibition curve with a large enough effect; inconclusive means small, poorly fitted or top-dose-only effect, or another doubt; inactive means no such curve, though single readings can be large or run the other way. Potencies beside an inconclusive call are fits to weak or partial responses and may not hold up.
# Molecular target: Polyunsaturated fatty acid lipoxygenase ALOX12 (Homo sapiens) (UniProt P18054)
# Assay: Primary qHTS assay for inhibitors of human arachidonate 12S-lipoxygenase (ALOX12): Round 2
# Conditions: purified 12hLO, xylenol orange hydroperoxide absorbance; activity change, negative = inhibition: at 108 µM (top of the series) unless noted
# Outline: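 Hydroperoxide product was detected by ferrous iron/xylenol orange as the 573 to 405 nm absorbance ratio. Arachidonic acid at 40 uM (final) was turned over for 30 min at room temperature by 150 nM human 12hLO, pH 7.0 Hepes buffer, after 15 min compound preincubation.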
# On the % scale 0 is the no-effect control and ±100 the full control effect; potency means the concentration at half of the fitted maximal effect.
SMILES,Potency,"activity change, negative = inhibition"
O=C(/C=C/c1ccc2ccccc2c1)c1cccnc1,"inconclusive: 39.8 µM [inhibitor, single point]",
O=C1c2c([N+](=O)[O-])cc([N+](=O)[O-])cc2S(=O)N1Cc1ccccc1 (stereo not given),"inconclusive: 0.447 µM [inhibitor, full curve, poor fit]",
COC(=O)[C@H]1C[C@@H]1[C@H](NC(=O)[C@H]1C[C@@H]1[C@H](NC(=O)OCc1ccccc1)c1ccccc1)c1ccccc1,,inactive: -1.69%
COC(=O)[C@@H]1Cc2c([nH]c3ccccc23)[C@H]2C[C@@H](NCCN3CCOCC3)C[C@@H](c3ccc(F)c(F)c3)N21,"inconclusive: 28.2 µM [inhibitor, full curve, poor fit]",
CCN(CC)S(=O)(=O)c1cccc(C(=O)N/N=C/c2cccc(O)c2O)c1,,inactive: -15.8%
Cn1c(SCC(=O)NC2CCCCC2)nnc1-c1ccccc1O,"inconclusive: 8.91 µM [inhibitor, full curve, poor fit]",
S=c1[nH]nc(-c2cccnc2)n1/N=C/c1cccs1,"inconclusive: 50.1 µM [inhibitor, partial curve, poor fit]",
Cc1ccc(NC(=O)NCc2ccco2)cc1[N+](=O)[O-],"inconclusive: 44.7 µM [inhibitor, partial curve, poor fit]",
O=C(COC(=O)C1(c2ccccc2F)CCCC1)Nc1ccc(C(F)(F)F)cc1[N+](=O)[O-],"inconclusive: 0.562 µM [inhibitor, full curve, poor fit]",
CCOc1ccc(CN(C(=O)c2cc(=O)c3ccc(C)c(C)c3o2)C2CCS(=O)(=O)C2)cc1 (stereo not given),"inconclusive: 44.7 µM [inhibitor, partial curve]",
COc1cccc(NC(=S)NNC(=O)Cn2nc(C(F)F)cc2C(F)F)c1,"inconclusive: 70.8 µM [inhibitor, partial curve, poor fit]",
CC(C)C[C@@H](CN1CCCC1CN1C(=S)NC[C@@H]1Cc1ccc(O)cc1)N1C[C@H](Cc2ccccc2)N(CC2CCCCCC2)C1=S (stereo not given in full),"inconclusive: 70.8 µM [inhibitor, partial curve, poor fit]",
Cc1ccc(C(=O)N2CCC(N3C(=O)C(O)C34CCCCC4)CC2)s1 (stereo not given),,inactive: -6.49%
C/C(=C\c1ccco1)C1C(C#N)=C(N)Oc2n[nH]c(-c3ccc(C)cc3)c21 (stereo not given),"inconclusive: 7.08 µM [inhibitor, full curve, poor fit]",
O=C(NCc1ccncc1)c1cc(C2CC2)nc2onc(C3CCCN3)c12 (stereo not given),"inconclusive: 10 µM [inhibitor, full curve, poor fit]",
CC(C)c1ccc(O)c(C(=O)c2cnn(-c3ccccc3)c2)c1,"inconclusive: 39.8 µM [inhibitor, partial curve, poor fit]",
N#CC1=C(N)Oc2n[nH]c(-c3ccc4ccccc4c3)c2C1c1ccc(O)cc1 (stereo not given),,inactive: -3.48%
CC(=O)c1ccc(NC(=O)N2Cc3[nH]cnc3C[C@H]2c2nc(-c3ccccc3)no2)cc1,"inconclusive: 28.2 µM [inhibitor, full curve]",
COc1ccccc1N(C)S(=O)(=O)c1ccc(C(=O)NCc2ccc3c(c2)OCO3)cc1,,inactive: 10.5%
CCc1cnc(C)nc1N1CCC(Oc2ccc3ccccc3c2)(C(=O)O)CC1,"inconclusive: 20 µM [inhibitor, partial curve, poor fit]",

# Sorted by length of the SMILES (smallest number first): 4 of the compounds above.
SMILES,Potency,"activity change, negative = inhibition"
O=C(/C=C/c1ccc2ccccc2c1)c1cccnc1,"inconclusive: 39.8 µM [inhibitor, single point]",
COc1ccccc1N(C)S(=O)(=O)c1ccc(C(=O)NCc2ccc3c(c2)OCO3)cc1,,inactive: 10.5%
O=C1c2c([N+](=O)[O-])cc([N+](=O)[O-])cc2S(=O)N1Cc1ccccc1 (stereo not given),"inconclusive: 0.447 µM [inhibitor, full curve, poor fit]",
COC(=O)[C@@H]1Cc2c([nH]c3ccccc23)[C@H]2C[C@@H](NCCN3CCOCC3)C[C@@H](c3ccc(F)c(F)c3)N21,"inconclusive: 28.2 µM [inhibitor, full curve, poor fit]",

# Remaining list, next part:

SMILES,Potency,"activity change, negative = inhibition"
CN1CCN(S(=O)(=O)c2ccc(N(C)Cc3ccc(C(F)(F)F)cc3)c([N+](=O)[O-])c2)CC1,"inconclusive: 79.4 µM [inhibitor, partial curve, poor fit]",
COc1cc(NS(=O)(=O)c2ccc(NC(=S)NC(=O)c3ccc(F)cc3)cc2)nc(OC)n1,active: 17.8 µM,
CC(NC(=O)N1CCC(NS(=O)(=O)c2cccs2)CC1)c1ccc(F)cc1F (stereo not given),"inconclusive: 79.4 µM [inhibitor, partial curve, poor fit]",
CCCCN(C)Cc1ccccc1OC,"inconclusive: 0.794 µM [inhibitor, full curve]",
O=C(c1csnn1)N1CCC2(CC1)CCN(c1ccccc1)CC2,"inconclusive: 25.1 µM [inhibitor, single point]",
O=C(/C=C/c1cccs1)Oc1ccccc1/C=C/C(=O)c1cc2ccccc2o1,"inconclusive: 0.0794 µM [inhibitor, full curve, poor fit]",
COc1ccc(N/C=C\C(=O)c2ccc(Br)cc2)cc1OC,,inactive: 4.41%
CC1=C(C#N)C(c2ccccc2C(F)(F)F)C(C#N)=C(C)N1,"inconclusive: 89.1 µM [inhibitor, single point]",
CCN(CC)S(=O)(=O)c1ccc(Cl)c(C(=O)Nc2c(C)cc(C)cc2Cl)c1,"inconclusive: 50.1 µM [inhibitor, partial curve, poor fit]",
CC(=O)/C(=N\Nc1ccc(Cl)cc1)Sc1nnc(-c2ccccc2)n1-c1ccccc1,"inconclusive: 44.7 µM [inhibitor, partial curve]",
NC(=O)c1c(NC(=O)CS(=O)(=O)c2ccc(Cl)cc2)sc2c1CCCCC2,"inconclusive: 50.1 µM [inhibitor, partial curve, poor fit]",
O=C(CCc1ccccc1)N1CCCC(n2cc(-c3nc(-c4ccccc4)no3)nn2)C1 (stereo not given),,inactive: -10.3%
COCCCNc1nc2ccccc2nc1C(C#N)C(=O)OC (stereo not given),"inconclusive: 39.8 µM [inhibitor, partial curve, poor fit]",
CCOC(=O)[C@]12CCCC=C1N(Cc1ccccc1)C(=O)[C@H](CC(=O)NCCCOC)C2,"inconclusive: 39.8 µM [inhibitor, partial curve, poor fit]",
O=C(/C=C/Nc1ccc(S(=O)(=O)Nc2ncccn2)cc1)c1ccc(Cl)c(Cl)c1,"inconclusive: 50.1 µM [inhibitor, partial curve, poor fit]",
O=C(CN(c1ccc(F)cc1)S(=O)(=O)c1ccccc1)NCCSC1CCCCC1,"inconclusive: 44.7 µM [inhibitor, partial curve, poor fit]",
CC(C)CNC(=O)c1cc2cn(C3CC3)cc2s1,,inactive: 13.4%
C=CCC[C@@H](Cc1ccc(F)cc1)C(=O)OC[C@@H]1CCCN1C(=O)[C@@H](CC=C)CC(=O)N[C@@H](CO)Cc1ccccc1,"inconclusive: 89.1 µM [inhibitor, partial curve, poor fit]",
CCc1c(C)sc2nc(NCC(C)O)n3nc(-c4ccco4)nc3c12 (stereo not given),"inconclusive: 89.1 µM [inhibitor, single point]",
Cc1ccc(-c2nc(CS(=O)(=O)CC(=O)Nc3ccc(Br)cc3F)c(C)o2)cc1,"inconclusive: 141 µM [inhibitor, single point]",

SMILES,Potency,"activity change, negative = inhibition"
COC(=O)CSc1nnc(-c2cccc(NC(=O)c3ccc(C)cc3)c2)n1C,,inactive: 24.3%
COc1cccc(CNC(=O)c2ccc(OCC(=O)N3CCOCC3)c(OC)c2)c1,"inconclusive: 126 µM [inhibitor, single point]",
OC[C@@H](O)[C@H](O)C(/C=N/Nc1ccccc1)=N\Nc1ccccc1,"inconclusive: 12.6 µM [inhibitor, full curve]",
COc1ccccc1/C=C/CN1CCCCC1,"inconclusive: 0.316 µM [inhibitor, full curve, poor fit]",
Cc1ccc(Cl)cc1N1CCN(C(=O)Cn2ncc3c4ccccc4n(C)c3c2=O)CC1,,inactive: -12.9%
Cc1cc(C=c2sc3nc4ccccc4n3c2=O)c(C)n1-c1ccccc1,"inconclusive: 27.3 µM [inhibitor, single point]",
CC(NC(=O)Nc1cccc([N+](=O)[O-])c1)(C(F)(F)F)C(F)(F)F,,inactive: -20.3%
O=C(c1cc(S(=O)(=O)N2CCOCC2)c(Cl)cc1Cl)N1CCCCC1,,inactive: 13%
O=C(CN1CCN(c2ncccn2)CC1)N1N=C(c2cc3ccccc3o2)CC1c1ccco1 (stereo not given),"inconclusive: 31.6 µM [inhibitor, partial curve]",
CNC(=O)c1cc(=O)n(CC(=O)Nc2cccc(C)c2)c2ccccc12,,inactive: -12.1%
Cc1ccc(-c2csc(-c3cc4c([nH]c3=O)CC(c3ccccc3)CC4=O)n2)cc1 (stereo not given),"inconclusive: 50.1 µM [inhibitor, partial curve, poor fit]",
COc1cc(Cl)c(CN2CCCC(CO)(Cc3ccccc3F)C2)cc1OC (stereo not given),"inconclusive: 39.8 µM [inhibitor, partial curve, poor fit]",
O=C1COc2ccc(-c3csc(NC4CCCCC4)n3)cc2N1,"inconclusive: 10 µM [inhibitor, full curve, poor fit]",
COc1ccc(-c2nnc(SCc3csc(Nc4ccccc4)n3)o2)cc1OC,"inconclusive: 28.2 µM [inhibitor, single point]",
Cc1ccc(/C=C/C(=O)OCC(=O)NCc2ccc(Cl)cc2)o1,"inconclusive: 28.2 µM [inhibitor, partial curve, poor fit]",
Cc1cc2c(cc1S(=O)(=O)Nc1ccc(OC(F)(F)F)cc1)OCC(=O)N2,"inconclusive: 79.4 µM [inhibitor, partial curve, poor fit] and inconclusive: 56.2 µM [inhibitor, partial curve, poor fit]",
OCCCNCc1ccc(N(c2ccccc2)c2ccccc2)cc1,"inconclusive: 7.94 µM [inhibitor, full curve]",
Cc1ccc(N(C(=O)c2sc(C)nc2C)C(C(=O)NCc2ccco2)c2ccccc2)cc1 (stereo not given),,inactive: -6.93%
O=C(NCCCN1CCOCC1)c1cccc(S(=O)(=O)N2CCc3ccccc32)c1,,inactive: -25.6%
Cc1ccc(CN2CC(C(=O)N3CCc4c(nc5cc(-c6ccccc6)[nH]n5c4=O)C3)CC2=O)cc1 (stereo not given),"inconclusive: 5.01 µM [inhibitor, full curve, poor fit]",
